Results published in the supplement of paper PMC10849652.
Some of the results follow. Residues, ends and D or L forms follow the SMILES beside them. *: point of attachment. Cbz = O=C(OCc1ccccc1)*

Amino acid sequences for entries named in this document (tags omitted). A change or cut given only in a name is not applied to a line headed by its entry.
UniProt Q9NXS2: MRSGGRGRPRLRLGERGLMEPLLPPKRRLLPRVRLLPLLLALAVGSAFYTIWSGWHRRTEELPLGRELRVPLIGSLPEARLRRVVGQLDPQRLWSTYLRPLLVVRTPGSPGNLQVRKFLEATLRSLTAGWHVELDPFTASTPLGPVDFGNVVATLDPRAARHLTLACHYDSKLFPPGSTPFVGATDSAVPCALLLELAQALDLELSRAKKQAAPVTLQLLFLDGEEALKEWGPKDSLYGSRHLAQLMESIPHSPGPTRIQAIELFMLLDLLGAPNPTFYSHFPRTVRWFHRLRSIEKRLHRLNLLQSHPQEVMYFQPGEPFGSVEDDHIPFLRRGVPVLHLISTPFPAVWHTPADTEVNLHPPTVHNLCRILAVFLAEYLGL
UniProt Q8WUK0: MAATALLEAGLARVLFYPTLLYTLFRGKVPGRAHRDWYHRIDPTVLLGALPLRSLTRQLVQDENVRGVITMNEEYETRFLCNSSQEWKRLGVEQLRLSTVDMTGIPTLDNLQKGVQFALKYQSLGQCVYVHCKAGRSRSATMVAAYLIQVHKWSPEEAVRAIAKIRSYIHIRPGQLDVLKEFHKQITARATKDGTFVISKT
UniProt Q15257: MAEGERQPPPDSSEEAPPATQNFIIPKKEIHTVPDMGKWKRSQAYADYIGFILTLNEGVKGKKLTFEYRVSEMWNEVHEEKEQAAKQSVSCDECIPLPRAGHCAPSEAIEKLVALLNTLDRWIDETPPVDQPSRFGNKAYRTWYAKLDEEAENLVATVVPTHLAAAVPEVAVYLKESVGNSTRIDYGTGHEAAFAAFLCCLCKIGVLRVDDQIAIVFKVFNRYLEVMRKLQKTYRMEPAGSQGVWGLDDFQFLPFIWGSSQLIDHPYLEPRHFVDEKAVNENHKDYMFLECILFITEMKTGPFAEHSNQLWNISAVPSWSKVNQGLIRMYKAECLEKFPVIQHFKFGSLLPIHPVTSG
UniProt Q13332: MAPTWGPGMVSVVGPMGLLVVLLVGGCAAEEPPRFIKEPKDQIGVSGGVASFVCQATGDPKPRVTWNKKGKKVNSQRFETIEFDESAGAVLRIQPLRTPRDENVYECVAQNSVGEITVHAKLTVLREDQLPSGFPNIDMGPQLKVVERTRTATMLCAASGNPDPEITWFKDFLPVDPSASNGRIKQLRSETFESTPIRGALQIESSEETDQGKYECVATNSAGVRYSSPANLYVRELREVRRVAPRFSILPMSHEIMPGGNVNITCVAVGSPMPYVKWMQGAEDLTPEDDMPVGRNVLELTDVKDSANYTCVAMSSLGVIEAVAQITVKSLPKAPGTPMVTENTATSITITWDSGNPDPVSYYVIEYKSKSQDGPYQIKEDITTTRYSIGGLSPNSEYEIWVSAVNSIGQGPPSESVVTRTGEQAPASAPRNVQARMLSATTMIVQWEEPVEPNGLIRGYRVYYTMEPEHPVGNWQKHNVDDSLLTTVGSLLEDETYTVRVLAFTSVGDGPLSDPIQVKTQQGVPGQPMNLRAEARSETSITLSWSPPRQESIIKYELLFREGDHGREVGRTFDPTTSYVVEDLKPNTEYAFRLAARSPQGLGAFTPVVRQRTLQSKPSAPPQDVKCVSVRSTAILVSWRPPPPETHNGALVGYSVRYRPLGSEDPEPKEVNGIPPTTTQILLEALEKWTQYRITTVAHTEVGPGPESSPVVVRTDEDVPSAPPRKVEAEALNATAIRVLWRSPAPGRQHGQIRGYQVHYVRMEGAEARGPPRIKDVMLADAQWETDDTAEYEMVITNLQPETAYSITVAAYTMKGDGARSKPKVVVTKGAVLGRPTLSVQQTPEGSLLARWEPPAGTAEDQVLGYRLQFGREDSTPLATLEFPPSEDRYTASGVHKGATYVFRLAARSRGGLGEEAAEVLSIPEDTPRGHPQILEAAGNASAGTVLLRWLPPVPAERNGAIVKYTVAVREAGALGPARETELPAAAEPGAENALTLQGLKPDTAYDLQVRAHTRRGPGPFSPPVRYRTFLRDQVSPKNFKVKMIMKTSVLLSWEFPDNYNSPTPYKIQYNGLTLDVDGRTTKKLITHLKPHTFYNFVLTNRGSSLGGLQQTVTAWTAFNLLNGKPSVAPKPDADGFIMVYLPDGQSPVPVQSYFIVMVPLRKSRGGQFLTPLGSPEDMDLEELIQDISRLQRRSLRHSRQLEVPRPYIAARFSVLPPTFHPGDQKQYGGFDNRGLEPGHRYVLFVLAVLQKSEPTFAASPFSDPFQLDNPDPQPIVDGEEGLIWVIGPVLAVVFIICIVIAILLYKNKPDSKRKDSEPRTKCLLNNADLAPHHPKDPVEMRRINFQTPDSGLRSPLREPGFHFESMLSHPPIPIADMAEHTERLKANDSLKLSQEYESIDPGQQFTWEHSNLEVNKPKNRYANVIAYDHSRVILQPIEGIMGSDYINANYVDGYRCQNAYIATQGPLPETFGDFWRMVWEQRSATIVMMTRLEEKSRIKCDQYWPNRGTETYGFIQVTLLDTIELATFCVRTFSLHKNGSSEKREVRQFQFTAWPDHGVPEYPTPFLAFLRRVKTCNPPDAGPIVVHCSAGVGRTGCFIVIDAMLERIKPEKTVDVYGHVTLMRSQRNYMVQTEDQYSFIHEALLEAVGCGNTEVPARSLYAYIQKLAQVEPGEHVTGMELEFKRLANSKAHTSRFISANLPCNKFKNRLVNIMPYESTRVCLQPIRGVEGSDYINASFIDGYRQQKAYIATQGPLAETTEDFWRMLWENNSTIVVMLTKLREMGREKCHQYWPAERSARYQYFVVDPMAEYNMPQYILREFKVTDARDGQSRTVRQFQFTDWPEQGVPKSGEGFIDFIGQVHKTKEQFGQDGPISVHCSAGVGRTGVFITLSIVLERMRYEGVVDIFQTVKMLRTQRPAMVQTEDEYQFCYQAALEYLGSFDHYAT
UniProt P28065: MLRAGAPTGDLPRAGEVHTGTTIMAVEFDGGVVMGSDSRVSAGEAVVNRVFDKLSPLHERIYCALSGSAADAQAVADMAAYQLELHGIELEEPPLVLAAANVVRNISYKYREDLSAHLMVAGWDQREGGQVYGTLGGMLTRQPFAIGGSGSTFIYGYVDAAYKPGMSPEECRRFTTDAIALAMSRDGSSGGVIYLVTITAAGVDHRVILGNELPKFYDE
UniProt P28072: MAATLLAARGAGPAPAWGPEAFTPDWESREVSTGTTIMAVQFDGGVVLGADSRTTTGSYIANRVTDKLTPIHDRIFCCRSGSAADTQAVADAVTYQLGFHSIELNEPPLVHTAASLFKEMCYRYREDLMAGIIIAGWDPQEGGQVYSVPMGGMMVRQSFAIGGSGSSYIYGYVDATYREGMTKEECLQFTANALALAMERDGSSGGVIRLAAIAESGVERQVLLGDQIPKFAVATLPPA
UniProt Q00577: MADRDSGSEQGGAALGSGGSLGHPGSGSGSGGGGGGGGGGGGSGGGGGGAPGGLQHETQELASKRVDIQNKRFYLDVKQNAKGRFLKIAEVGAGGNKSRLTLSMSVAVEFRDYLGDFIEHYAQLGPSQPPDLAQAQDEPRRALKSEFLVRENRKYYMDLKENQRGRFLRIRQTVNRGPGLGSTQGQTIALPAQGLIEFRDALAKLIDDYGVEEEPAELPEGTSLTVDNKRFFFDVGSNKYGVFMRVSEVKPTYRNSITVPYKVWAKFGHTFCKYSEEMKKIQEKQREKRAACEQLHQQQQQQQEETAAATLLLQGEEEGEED
UniProt Q7Z7A4: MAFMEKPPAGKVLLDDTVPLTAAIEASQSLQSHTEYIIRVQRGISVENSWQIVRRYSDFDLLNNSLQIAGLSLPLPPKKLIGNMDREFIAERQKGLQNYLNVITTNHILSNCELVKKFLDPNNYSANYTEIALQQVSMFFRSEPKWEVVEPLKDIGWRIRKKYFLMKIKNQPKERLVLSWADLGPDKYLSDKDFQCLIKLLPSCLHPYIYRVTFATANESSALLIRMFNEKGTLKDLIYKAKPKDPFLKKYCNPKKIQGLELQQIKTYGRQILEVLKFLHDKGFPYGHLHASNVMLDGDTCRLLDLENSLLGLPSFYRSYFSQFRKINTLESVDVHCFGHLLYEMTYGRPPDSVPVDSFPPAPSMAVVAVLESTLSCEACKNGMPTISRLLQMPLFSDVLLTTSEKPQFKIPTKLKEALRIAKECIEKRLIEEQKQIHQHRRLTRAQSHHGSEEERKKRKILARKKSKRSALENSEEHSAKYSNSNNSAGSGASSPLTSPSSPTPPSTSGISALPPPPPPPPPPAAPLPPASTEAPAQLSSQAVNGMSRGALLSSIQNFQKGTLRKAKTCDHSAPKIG
UniProt Q86TP1: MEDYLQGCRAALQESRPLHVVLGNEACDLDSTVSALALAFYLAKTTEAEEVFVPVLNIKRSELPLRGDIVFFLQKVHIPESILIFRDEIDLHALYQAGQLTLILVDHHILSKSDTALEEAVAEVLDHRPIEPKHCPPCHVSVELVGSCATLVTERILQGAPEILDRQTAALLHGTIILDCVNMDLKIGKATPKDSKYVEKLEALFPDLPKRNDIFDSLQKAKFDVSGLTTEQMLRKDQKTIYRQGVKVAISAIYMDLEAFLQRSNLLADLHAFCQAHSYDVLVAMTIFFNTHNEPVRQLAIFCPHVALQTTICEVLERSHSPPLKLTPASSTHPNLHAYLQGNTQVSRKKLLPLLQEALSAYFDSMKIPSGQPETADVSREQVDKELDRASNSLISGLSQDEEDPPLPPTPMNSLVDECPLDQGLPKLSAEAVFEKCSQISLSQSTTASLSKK
UniProt P53801: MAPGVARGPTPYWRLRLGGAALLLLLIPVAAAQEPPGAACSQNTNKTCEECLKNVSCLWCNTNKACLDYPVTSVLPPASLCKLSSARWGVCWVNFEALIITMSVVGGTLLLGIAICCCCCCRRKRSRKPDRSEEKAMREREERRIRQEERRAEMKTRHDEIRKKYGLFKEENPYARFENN

What was measured:
Test in all cases: log2 fold change, soluble protein after heating vs DMSO (PISA); higher = thermal stabilisation; K562 cells, 10 uM, 30 min; active = over 0.2 and 3.5 SD of the protein, either way, in both replicates (recomputed)
erlotinib = compound: C#Cc1cccc(Nc2ncnc3cc(OCCOC)c(OCCOC)cc23)c1 [erlotinib]
Summary of the method: (§1)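 Aliquots of K562 cells (2×10^6 cells/mL) treated with 10 μM compound for 30 min were heated for 3 min over 48°C-58°C. After pooling and extraction in PBS with 0.5% NP-40 at 4°C, soluble protein from a 21,000xg, 90 min spin was quantified by TMTpro 16plex LC-MS/MS with channel sums equalised. Thermal stability is expressed against control samples, from duplicates, as a log2 fold change.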

[1] = compound: C/C(=N\NC(=O)C1=CC(=CC=C1)S(=O)(=O)N2CCOCC2)/C3=C(C=CC(=C3)Cl)O
Summary of the method: as §1

[2] = compound: C1=CC(=C(C=C1Cl)C2=NC3=NC=CN=C3C(=N2)NC4=CC=NC=C4)F
Summary of the method: as §1

[3] = compound: C1=CC(=CC=C1C2=NC3=C(N2)C=C(C=C3)C(=O)N)OC4=CC=C(C=C4)Cl
Summary of the method: as §1

[4] = compound: C1=CC2=C(C=CC(=C2)/C=C\3/C(=O)NC(=NCC4=CC=CS4)S3)N=C1
Summary of the method: as §1

[5] = compound: C1=CC2=NC=CN=C2C=C1/C=C/3\C(=O)NC(=O)S3
Summary of the method: as §1

[6] = compound: C1=CC=C(C=C1)C2=NC(=C(N2)C3=CC=NC=C3)C4=CC(=C(C=C4)Cl)O
Summary of the method: as §1

[7] = compound: C1=CC=C2C(=C1)C3=NNC4=CC=CC(=C43)C2=O
Summary of the method: as §1

[8] = compound: C1CCN(C1)C(=O)NC2=CC=CC(=C2)NC3=NC=C(C(=N3)NCCC4=CN=CN4)Br
Summary of the method: as §1

[9] = compound: C1CN(CCC1(CC2=CC=C(C=C2)Cl)N)C3=NC=NC4=C3C=CN4
Summary of the method: as §1

IRAK-1-4 Inhibitor I = compound: C1COCCN1CCN2C3=CC=CC=C3N=C2NC(=O)C4=CC(=CC=C4)[N+](=O)[O-] [IRAK-1-4 Inhibitor I]
Summary of the method: as §1

ibrutinib = compound: C=CC(=O)N1CCC[C@@H](n2nc(-c3ccc(Oc4ccccc4)cc3)c3c(N)ncnc32)C1 [ibrutinib]
Summary of the method: as §1

[10] = compound: CC(=O)c1cnc2ccc(-c3cc(Cl)c(O)c(Cl)c3)nc2c1N[C@H]1CC[C@H](CN(C)C)CC1
Summary of the method: as §1

ralimetinib = compound: CC(C)(C)Cn1c(N)nc2ccc(-c3[nH]c(C(C)(C)C)nc3-c3ccc(F)cc3)nc21 [ralimetinib]
Summary of the method: as §1

[11] = compound: CC(C)(O)CC(=O)NCCn1ccc2ncnc(Nc3ccc(Oc4cccc(C(F)(F)F)c4)c(Cl)c3)c21
Summary of the method: as §1

[12] = compound: CC(C)C1=C2N=C(C=C(N2N=C1)NCC3=CC=CC=C3)NCCCCCCN
Summary of the method: as §1

[13] = compound: CC(C)C[C@@H](C=O)NC(=O)[C@H](CC(C)C)NC(=O)[C@H](CC(C)C)NC(=O)OCc1ccccc1
Summary of the method: as §1

pinometostat = compound: CC(C)N(C[C@H]1O[C@@H](n2cnc3c(N)ncnc32)[C@H](O)[C@@H]1O)[C@H]1C[C@@H](CCc2nc3cc(C(C)(C)C)ccc3[nH]2)C1 [pinometostat]
Summary of the method: as §1

[14] = compound: CC1=C(C(CC(=O)N1)C2=CC=C(C=C2)C(F)(F)F)C(=O)NC3=C(C=C4C(=C3)C=NN4)F
Summary of the method: as §1

[15] = compound: CC1=C(C2=C(C=C1)C(=O)C3=CC=CC=C3N2CCCN)C
Summary of the method: as §1

Row | Target | log2 fold change (erlotinib) | log2 fold change [1] | log2 fold change [2] | log2 fold change [3] | log2 fold change [4] | log2 fold change [5] | log2 fold change [6] | log2 fold change [7] | log2 fold change [8] | log2 fold change [9] | log2 fold change (IRAK-1-4 Inhibitor I) | log2 fold change (ibrutinib) | log2 fold change [10] | log2 fold change (ralimetinib) | log2 fold change [11] | log2 fold change [12] | log2 fold change [13] | log2 fold change (pinometostat) | log2 fold change [14] | log2 fold change [15]
1 | QPCTL (UniProt Q9NXS2) | inactive: -0.043 | inactive: -0.038 | inactive: -0.014 | inactive: 0.083 | inactive: 0.06 | inactive: -0.035 | inactive: -0.054 | inactive: 0.045 | inactive: -0.071 | inactive: -0.053 | inactive: -0.038 | inactive: -0.067 | inactive: -0.013 | inactive: 0.067 | inactive: -0.004 | inactive: -0.154 | inactive: 0.073 | inactive: 0.023 | inactive: 0 | inactive: 0.057
2 | PTPMT1 (UniProt Q8WUK0) | inactive: -0.009 | inactive: -0.017 | inactive: 0.202 | inactive: 0.053 | inactive: 0.009 | inactive: 0.015 | inactive: 0.03 | inactive: 0.013 | inactive: -0.001 | inactive: -0.045 | inactive: 0.018 | inactive: -0.05 | inactive: -0.131 | inactive: -0.144 | inactive: -0.083 | active: -0.579 | inactive: 0.052 | inactive: 0.013 |  | inactive: -0.057
3 | PTPA (UniProt Q15257) | inactive: 0.022 | inactive: 0.034 | inactive: 0.069 | inactive: 0.127 | inactive: -0.01 | inactive: 0.01 | inactive: 0.022 | inactive: 0.029 | inactive: -0.037 | inactive: -0.013 | inactive: 0.016 | inactive: -0.027 | inactive: -0.003 | inactive: -0.02 | inactive: -0.022 | inactive: -0.01 | inactive: -0.028 | inactive: -0.044 |  | inactive: -0.011
4 | PYCR1 (UniProt J3QKT4) | inactive: 0.171 | inactive: -0.43 | inactive: 0.023 | inactive: 0.01 | inactive: 0.177 | inactive: 0.01 |  | inactive: 0.048 | inactive: -0.062 | inactive: 0.218 |  | inactive: -0.058 | inactive: -0.108 |  | inactive: -0.04 | inactive: 0.168 |  |  |  | inactive: -0.017
5 | PTPRS (UniProt Q13332) | inactive: -0.026 | inactive: 0.055 | inactive: -0.051 | inactive: -0.004 | inactive: -0.107 | inactive: -0.15 | inactive: 0.173 | inactive: -0.021 |  |  | inactive: 0.157 | inactive: -0.026 | inactive: -0.031 | inactive: -0.193 | inactive: 0.055 | inactive: 0.031 | inactive: 0.521 | inactive: 0.254 | inactive: 0.032 | 
6 | PSMB9 (UniProt P28065) | inactive: -0.158 | active: -0.633 | inactive: -0.116 | inactive: 0.113 | inactive: 0.174 | inactive: -0.142 |  | inactive: -0.006 |  |  | inactive: 0.091 | inactive: 0.511 | inactive: 0.031 |  | inactive: -0.01 | inactive: 0.205 |  | inactive: 0.069 |  | 
7 | PSMB6 (UniProt P28072) | inactive: -0.067 | inactive: -0.079 | inactive: -0.024 | inactive: -0.001 | inactive: -0.068 | inactive: -0.006 | inactive: -0.046 | inactive: -0.012 | inactive: 0.011 | inactive: 0.042 | inactive: -0.007 | inactive: -0.025 | inactive: 0.049 | inactive: -0.045 | inactive: 0.045 | inactive: 0.129 | active: 0.4 | inactive: -0.053 |  | inactive: 0
8 | PURA (UniProt Q00577) | inactive: -0.244 | inactive: -0.208 | inactive: -0.319 | inactive: 0.101 | inactive: -0.156 | inactive: 0.013 | inactive: -0.137 | inactive: -0.051 | inactive: 0.179 | inactive: -0.102 | inactive: -0.151 | inactive: 0.096 | inactive: 0.169 | inactive: 0.064 | inactive: 0.276 | inactive: 0.129 | inactive: 0.079 | inactive: 0.087 |  | active: -0.792
9 | PTPA (UniProt A6PVN8) | inactive: -0.061 | inactive: 0.21 | inactive: -0.107 | inactive: 0.367 | inactive: 0.088 | inactive: 0.031 | inactive: 0.063 | inactive: 0.065 | inactive: 0.01 | inactive: 0.031 |  | inactive: 0.063 | inactive: -0.241 | inactive: -0.07 | inactive: -0.052 | inactive: 0.122 | inactive: -0.002 |  |  | inactive: -0.104
10 | PXK (UniProt Q7Z7A4) | inactive: 0.062 | inactive: 0.019 | inactive: -0.006 | inactive: 0.022 | inactive: 0.074 | inactive: 0.018 | active: 0.251 | inactive: 0.019 | inactive: 0.014 | inactive: 0.004 | inactive: 0.032 | inactive: 0.042 | inactive: -0.012 | inactive: 0.1 | inactive: -0.023 | inactive: -0.201 | inactive: 0.037 | inactive: 0.012 |  | inactive: 0.057
11 | PRUNE1 (UniProt Q86TP1) | inactive: 0.002 | inactive: 0.063 | inactive: 0.062 | inactive: 0.03 | inactive: -0.034 | inactive: -0.016 | inactive: 0.051 | inactive: 0.045 | inactive: -0.079 | inactive: -0.005 | inactive: 0.049 | inactive: -0.058 | inactive: 0.012 | inactive: 0.017 | inactive: -0.037 | inactive: -0.129 | inactive: 0.04 | inactive: 0.08 |  | inactive: -0.021
12 | PTTG1IP (UniProt P53801) | inactive: -0.011 | inactive: -0.06 | inactive: -0.039 | inactive: -0.001 | inactive: 0.026 | inactive: 0.033 |  | inactive: -0.082 | inactive: 0.037 | inactive: 0.01 | inactive: -0.122 | inactive: 0.028 | inactive: -0.004 |  | inactive: -0.031 | inactive: 0.029 |  | inactive: 0.028 |  | inactive: -0.119

Two entries from above, as a markdown table:

| Row | Target | log2 fold change (erlotinib) | log2 fold change [1] | log2 fold change [2] | log2 fold change [3] | log2 fold change [4] | log2 fold change [5] | log2 fold change [6] | log2 fold change [7] | log2 fold change [8] | log2 fold change [9] | log2 fold change (IRAK-1-4 Inhibitor I) | log2 fold change (ibrutinib) | log2 fold change [10] | log2 fold change (ralimetinib) | log2 fold change [11] | log2 fold change [12] | log2 fold change [13] | log2 fold change (pinometostat) | log2 fold change [14] | log2 fold change [15] |
| --- | --- | --- | --- | --- | --- | --- | --- | --- | --- | --- | --- | --- | --- | --- | --- | --- | --- | --- | --- | --- | --- |
| 3 | PTPA (UniProt Q15257) | inactive: 0.022 | inactive: 0.034 | inactive: 0.069 | inactive: 0.127 | inactive: -0.01 | inactive: 0.01 | inactive: 0.022 | inactive: 0.029 | inactive: -0.037 | inactive: -0.013 | inactive: 0.016 | inactive: -0.027 | inactive: -0.003 | inactive: -0.02 | inactive: -0.022 | inactive: -0.01 | inactive: -0.028 | inactive: -0.044 |  | inactive: -0.011 |
| 7 | PSMB6 (UniProt P28072) | inactive: -0.067 | inactive: -0.079 | inactive: -0.024 | inactive: -0.001 | inactive: -0.068 | inactive: -0.006 | inactive: -0.046 | inactive: -0.012 | inactive: 0.011 | inactive: 0.042 | inactive: -0.007 | inactive: -0.025 | inactive: 0.049 | inactive: -0.045 | inactive: 0.045 | inactive: 0.129 | active: 0.4 | inactive: -0.053 |  | inactive: 0 |
